The subject of the data set is GST-GCN4 3.12 (partial GCN4 including C-terminal DNA-binding region) (Saccharomyces cerevisiae). Description: EMSA. The note with it: no blocking DNA; 7.5% polyacrylamide gel; purified recombinant protein; label: 32P-dATP.

Chains of the proteins cited; added tags and fusions are not shown. Chains listed by the source or under a name are the forms on record and can include a tag or linker.
GST-GCN4 3.12 (partial GCN4 including C-terminal DNA-binding region) (Saccharomyces cerevisiae), one chain, as listed by the source: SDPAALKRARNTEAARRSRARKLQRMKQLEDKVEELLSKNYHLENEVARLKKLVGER

Construct, isoform or probe ends are uncertain for at least one entry.

For “CCACCTAGCGGATGACTCATTTTTTTTCTTAGCG / CGCTAAGAAAAAAAATGAGTC [GCN4 site gel-retardation probe]”, the binding result is “binds”.

The record behind these values is patent publication US5536648.
